Measured values as given in PubChem BioAssay (NCATS).
Inconclusive means that the source gave no clear call. Such entries were picked first, then a sample of the others. A potency beside an inconclusive call is a rough fit, not a confirmed value. The source made the active and inactive calls. The call rests on the fitted dose curve; in most records, active means well fitted cell-killing curve with a large enough effect; inconclusive means small, poorly fitted or top-dose-only effect, or effect the other way; inactive means no such curve, though single readings can be large or run the other way. Where a SMILES comes first, the peptide text is derived from it. [ ]: non-standard residue; d: D form. The star is where a group is joined. Nva = CCC[C@H](N)C(=O)O; Cbz = O=C(OCc1ccccc1)*

Assay: Quantitative High-Throughput drug screen in 47 multiple myeloma cell lines against the NCATS MIPE library collection: EJM_DSMZ cell viability assay (AID 1918926;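 on viability, % of control: 100% = DMSO-only wells and 0% = media-only wells without cells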)
Details: EJM myeloma cell viability, CellTiter-Glo ATP, 48 h; viability, % of control: at 45.8 µM (top of the series)
Summary of the method: (§1)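 Viability readout: CellTiter-Glo luminescence following 5 min room-temperature incubation with reagent. Prior exposure: 48 h, 37C, humidified 5% CO2, 500 cells per well.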
Further: nearly all actives have a fitted effect of over 30% in size.
Potency means the concentration at half of the fitted maximal effect.

**Q.** For `CC=CC1=C(C(=O)O)N2C(=O)[C@H](NC(=O)[C@H](N)c3ccc(O)cc3)[C@@H]2SC1`, which “viability, % of control” value is on record?
**A.** Its value is inactive: 104%.

**Q.** With `COc1cc(OC2CCN(C)CC2)ccc1Nc1ncc2c(n1)n(C1CCCC1)c(=O)n2C` as the molecule, how does the Potency read?
**A.** Its Potency is inconclusive: 14.8 µM [cytotoxic, partial curve].

**Q.** For `Cn1cc(-c2ccc3nnc(Sc4ccc5ncccc5c4)n3n2)cn1`, which Potency is on record?
**A.** Its Potency is inconclusive: 16.6 µM [cytotoxic, partial curve].

**Q.** Which Potency does the source give for `O=C(Nc1nnc(-c2ccco2)o1)c1cc(-c2ccccc2)nc2ccccc12` here?
**A.** Its Potency is inconclusive: 23.5 µM [cytotoxic, partial curve].

**Q.** Which Potency does the source give for `CC(C)(N)c1ccc(-c2nc3ccccc3nc2-c2ccccc2)cc1` here?
**A.** Its Potency is active: 23.5 µM.

**Q.** For `CN[C@@H]1CN(c2ccc3c(=O)c(C(=O)O)cn(-c4nccs4)c3n2)C[C@@H]1OC`, which Potency is on record?
**A.** Its Potency is inconclusive: 16.2 µM [cytotoxic, single point].

**Q.** Which Potency does the source give for `Cc1cc(C(C)Nc2ccccc2)c2nc(N3CCOCC3)cc(=O)n2c1` (stereo not drawn) here?
**A.** Its Potency is inconclusive: 26.4 µM [cytotoxic, partial curve, poor fit].

**Q.** With `O=C(Nc1cccc(Cl)c1)Nc1ncc(CCNc2ncnc3ccsc23)s1` as the molecule, how does the Potency read?
**A.** Its Potency is inconclusive: 0.372 µM [cytotoxic, full curve, poor fit].

**Q.** Which Potency does the source give for `COc1cc(NCc2ccc3nc(N)nc(N)c3c2C)cc(OC)c1OC` here?
**A.** The Potency was active: 8.33 µM.

**Q.** Which Potency does the source give for `CCCCc1oc2ccc(NS(C)(=O)=O)cc2c1C(=O)c1ccc(OCCCN(CCCC)CCCC)cc1` here?
**A.** Its Potency is active: 16.6 µM.

**Q.** For `O=S(=O)(NCCNCC=Cc1ccc(Br)cc1)c1cccc2cnccc12`, which Potency is on record?
**A.** Its Potency is inconclusive: 18.7 µM [cytotoxic, partial curve].

**Q.** Which Potency does the source give for `Cc1ccc(NC(=O)c2cccc(C(C)(C)C#N)c2)cc1Nc1ccc2ncn(C)c(=O)c2c1` here?
**A.** Its Potency is inconclusive: 11.8 µM [cytotoxic, partial curve].

**Q.** For `Cc1cc(-c2nnc3n2CCCCC3)c(C)n1-c1ccccc1`, which Potency is on record?
**A.** The Potency was inconclusive: 18.7 µM [cytotoxic, partial curve, poor fit].

**Q.** With `C[C@H](c1ccc(F)cc1CCCC(=O)O)N(c1cc(F)ccc1F)S(=O)(=O)c1ccc(Cl)cc1` as the molecule, how does the Potency read?
**A.** Its Potency is inconclusive: 9.35 µM [cytotoxic, partial curve].

**Q.** Which Potency does the source give for `CN1CCC[C@H]1CCO[C@](C)(c1ccccc1)c1ccc(Cl)cc1` here?
**A.** Its Potency is inconclusive: 20.9 µM [cytotoxic, partial curve].

**Q.** For `O=C(NC[C@H](O)CO)c1ccncc1Nc1ccc(I)cc1F`, which Potency is on record?
**A.** Its Potency is active: 18.7 µM.

**Q.** For `CN1CCCN(C(=O)c2cccc(-c3ccc(C=C4C(=O)Nc5ccc(Cl)cc54)o3)c2)CC1`, which Potency is on record?
**A.** Its Potency is inconclusive: 23.5 µM [cytotoxic, partial curve, poor fit].

**Q.** For `COc1ccc2c(c1)c(C1=C(c3c[nH]c4ccccc34)C(=O)NC1=O)cn2CCCN(C)C`, which Potency is on record?
**A.** The Potency was inconclusive: 26.4 µM [cytotoxic, single point].

**Q.** For `C=CCc1cccc(C=NNC(=O)CN2CCN(Cc3ccccc3)CC2)c1O`, which Potency is on record?
**A.** Its Potency is inconclusive: 9.35 µM [cytotoxic, full curve].

**Q.** For `Cc1n[nH]c(C)c1Cc1sc2c(c1C(=O)N1C[C@H](O)CO1)c(=O)n(C)c(=O)n2CC(C)C`, which “viability, % of control” value is on record?
**A.** Its value is inactive: 95.7%.

**Q.** Which Potency does the source give for `N#Cc1c(NC(=O)c2cccc3ccccc23)sc2c1CCCC2` here?
**A.** Its Potency is inconclusive: 0.662 µM [cytotoxic, full curve].

**Q.** With `CNC(=O)[C@H](CC1=CN=C2C=CCC=C12)NC(=O)[C@@H](CC(=O)NO)CC(C)C` as the molecule, how does the Potency read?
**A.** The Potency was inconclusive: 26.4 µM [cytotoxic, single point].

**Q.** With `Cc1ccc(S(=O)(=O)NC(=O)NN2CC3CCCC3C2)cc1` (stereo not drawn) as the molecule, how does the Potency read?
**A.** The Potency was inconclusive: 33.2 µM [cytotoxic, single point].

**Q.** Which “viability, % of control” value does the source give for `COc1cc(C=CC(=O)O)ccc1O` here?
**A.** The value was inactive: 106%.

**Q.** With `CCc1cncnc1N1CCN(Cc2nc3ccc(C(F)(F)F)cc3[nH]2)CC1` as the molecule, how does the Potency read?
**A.** The Potency was inconclusive: 23.5 µM [cytotoxic, single point].

**Q.** Which Potency does the source give for `CC(C)c1ccccc1Cc1cc(C(=O)Nc2ccc(S(=O)(=O)c3ccccc3C(C)(C)C)cc2)c(O)c(O)c1O` here?
**A.** The Potency was inconclusive: 11.8 µM [cytotoxic, full curve].

**Q.** For `CCC(C)(C)c1ccc(CC(C)CN2C[C@@H](C)O[C@@H](C)C2)cc1` (stereo partly drawn), which Potency is on record?
**A.** Its Potency is inconclusive: 37.2 µM [cytotoxic, single point].

**Q.** Which Potency does the source give for `COc1c(C)cnc(Cn2cnc3c(Cl)nc(N)nc32)c1C` here?
**A.** The Potency was inconclusive: 0.209 µM [cytotoxic, full curve].

Assay: Quantitative High-Throughput drug screen in 47 multiple myeloma cell lines against the NCATS MIPE library collection: AMO1_DSMZ cell viability assay (AID 1918927;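 on viability, % of DMSO: 100% = DMSO only wells and 0% = cell-free media only wells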)
Details: AMO1 myeloma cells viability, CellTiter-Glo ATP luminescence, 48 h; viability, % of DMSO: at 45.8 µM (top of the series)
Summary of the method: as §1

**Q.** Which Potency does the source give for `c1cncc(CN2CCC(n3ncc4c(N5CCOCC5)nc(-c5ccc6[nH]ccc6c5)nc43)CC2)c1` here?
**A.** The Potency was inconclusive: 0.469 µM [cytotoxic, full curve, poor fit].

**Q.** For `C=C1CCC2[C@](C)(CO)C(O)CC[C@]2(C)C1CC=C1C(=O)OCC1O` (stereo partly drawn), which Potency is on record?
**A.** Its Potency is inconclusive: 0.0038 µM [cytotoxic, full curve, poor fit].

**Q.** Which Potency does the source give for `CC(C)[N+]1(C)[C@@H]2CC[C@H]1CC(OC(=O)C(CO)c1ccccc1)C2` (stereo partly drawn) here?
**A.** The Potency was inconclusive: 14.8 µM [cytotoxic, partial curve].

**Q.** For `CC(C)(CO)[C@@H](O)C(=O)NCCC(=O)O`, which “viability, % of DMSO” value is on record?
**A.** The value was inactive: 101%.

**Q.** With `O=C(O)CCNC(=O)c1ccc(N=Nc2ccc(O)c(C(=O)O)c2)cc1` as the molecule, how does the Potency read?
**A.** The Potency was inconclusive: 0.264 µM [cytotoxic, partial curve, poor fit].

**Q.** With `CCC[C@@H](C=O)NC(=O)[C@H](CC(C)C)NC(=O)[C@H](CC(C)C)NC(=O)OCc1ccccc1` (Cbz-Leu-Leu-[Nva]-aldehyde) as the molecule, how does the Potency read?
**A.** The Potency was active: 0.296 µM.

**Q.** For `Nc1ccn([C@@H]2CS[C@H](CO)O2)c(=O)n1`, which “viability, % of DMSO” value is on record?
**A.** The value was inactive: 108% [at 92.2 µM].

**Q.** With `CCC1(C)CC(=O)NC1=O` (stereo not drawn) as the molecule, how does the “viability, % of DMSO” value read?
**A.** The value was inactive: 122%.

**Q.** Which Potency does the source give for `CC(Cc1ccc(O)c(O)c1)(NN)C(=O)O` (stereo not drawn) here?
**A.** The Potency was inconclusive: 0.0042 µM [cytotoxic, full curve, poor fit].

**Q.** For `Cc1cc(OCCCS(C)(=O)=O)cc(C)c1-c1cccc(COc2ccc3c(c2)OC[C@H]3CC(=O)O)c1`, which Potency is on record?
**A.** Its Potency is inconclusive: 7.43 µM [cytotoxic, partial curve, poor fit].
